Experiments:
Assay in all cases: Growth inhibition at 72 h by MTT assay
[1] = tested on: MDA-MB-231; settings: Homo sapiens, MDA-MB-231, 72 h
[2] = tested on: T47D; format: cell-based; settings: Homo sapiens, T47D (ER+)
[3] = tested on: BT474; settings: Homo sapiens, BT-474, 72 h

**Q.** How did the IC50 [1] turn out when CC/C(=C(\c1ccccc1)c1ccc(OCCN(C)C)cc1)c1ccccc1 [tamoxifen, reference compound] was run?
**A.** The IC50 was 21.8 ± 2.9 µM.

**Q.** And the IC50 [2]?
**A.** Its IC50 is 9.4 ± 0.6 µM.

**Q.** What about the IC50 [3] of the same compound?
**A.** Its IC50 is 6.2 ± 0.1 µM.

— US9226912B2, “Acetyltanshinone IIA (ATA) as anticancer agent” (Nanyang Technological University, priority 2011, dated 2016)
